Data from PMC8213057, “Targeting ALK2: An Open Science Approach to Developing Therapeutics for the Treatment of Diffuse Intrinsic Pontine Glioma” (Journal of Medicinal Chemistry, 2020).

Columns and labels:
[1] = target: BRK (Homo sapiens, UniProt Q13882); settings: 1 μM; Run 1, Run 2
[2] = target: CDK3/cyclin E (Homo sapiens, UniProt Q00526); settings: 1 μM; Run 1, Run 2
[3] = target: CDK4/cyclin D3 (Homo sapiens, UniProt P11802); settings: 1 μM; Run 1, Run 2
[4] = target: CHK2 (Homo sapiens, UniProt O96017); settings: 1 μM; Run 1, Run 2
[5] = target: CK1a1 (Homo sapiens, UniProt P48729); settings: 1 μM; Run 1, Run 2
[6] = target: CK1epsilon (Homo sapiens, UniProt P49674); settings: 1 μM; Run 1, Run 2
[7] = target: CK2a (Homo sapiens, UniProt P68400); settings: 1 μM; Run 1, Run 2
[8] = target: CLK4 (Homo sapiens, UniProt Q9HAZ1); settings: 1 μM; Run 1, Run 2
[9] = target: DLK/MAP3K12 (Homo sapiens, UniProt Q12852); settings: 1 μM; Run 1, Run 2
[10] = target: FGFR2 (Homo sapiens, UniProt P21802); settings: 1 μM; Run 1, Run 2
[11] = target: GRK7 (Homo sapiens, UniProt Q8WTQ7); settings: 1 μM; Run 1, Run 2
[12] = target: HPK1/MAP4K1 (Homo sapiens, UniProt Q92918); settings: 1 μM; Run 1, Run 2
[13] = target: MSK2/RPS6KA4 (Homo sapiens, UniProt O75676); settings: 1 μM; Run 1, Run 2
[14] = target: MST2/STK3 (Homo sapiens, UniProt Q13188); settings: 1 μM; Run 1, Run 2
[15] = target: MYLK3 (Homo sapiens, UniProt Q32MK0); settings: 1 μM; Run 1, Run 2
[16] = target: PEAK1 (Homo sapiens, UniProt Q9H792); settings: 1 μM; Run 1, Run 2
[17] = target: PIM1 (Homo sapiens, UniProt P11309); settings: 1 μM; Run 1, Run 2
[18] = target: PKA (Homo sapiens, UniProt P17612); settings: 1 μM; Run 1, Run 2
[19] = target: PLK2 (Homo sapiens, UniProt Q9NYY3); settings: 1 μM; Run 1, Run 2
[20] = target: PLK3 (Homo sapiens, UniProt Q9H4B4); settings: 1 μM; Run 1, Run 2
[21] = target: T1, TLK1 (Homo sapiens, UniProt Q9UKI8); settings: 1 μM; Run 1, Run 2
[22] = target: TXK (Homo sapiens, UniProt P42681); settings: 1 μM; Run 1, Run 2
[23] = target: AKT2 (Homo sapiens, UniProt P31751); assay: biochemical; settings: read-out: % enzyme activity, 1 μM; Run 1, Run 2
[24] = target: CAMK2b (Homo sapiens, UniProt Q13554); assay: biochemical; settings: read-out: % enzyme activity, 1 μM; Run 1, Run 2
[25] = target: CDK7/cyclin H (Homo sapiens, UniProt P50613); assay: biochemical; settings: read-out: % enzyme activity, 1 μM; Run 1, Run 2
[26] = target: CDK8/cyclin C (Homo sapiens, UniProt P49336); assay: biochemical; settings: read-out: % enzyme activity, 1 μM; Run 1, Run 2
[27] = target: EPHA7 (Homo sapiens, UniProt Q15375); assay: biochemical; settings: read-out: % enzyme activity, 1 μM; Run 1, Run 2
[28] = target: EPHB2 (Homo sapiens, UniProt P29323); assay: biochemical; settings: read-out: % enzyme activity, 1 μM; Run 1, Run 2
[29] = target: ERBB2/HER2 (Homo sapiens, UniProt P04626); assay: biochemical; settings: read-out: % enzyme activity, 1 μM; Run 1, Run 2
[30] = target: HIPK2 (Homo sapiens, UniProt Q9H2X6); assay: biochemical; settings: read-out: % enzyme activity, 1 μM; Run 1, Run 2
[31] = target: HIPK3 (Homo sapiens, UniProt Q9H422); assay: biochemical; settings: read-out: % enzyme activity, 1 μM; Run 1, Run 2
[32] = target: MARK1 (Homo sapiens, UniProt Q9P0L2); assay: biochemical; settings: read-out: % enzyme activity, 1 μM; Run 1, Run 2
[33] = target: MEKK6 (Homo sapiens, UniProt O95382); assay: biochemical; settings: read-out: % enzyme activity, 1 μM; Run 1, Run 2
[34] = target: MLCK/MYLK (Homo sapiens, UniProt Q15746); assay: biochemical; settings: read-out: % enzyme activity, 1 μM; Run 1, Run 2
[35] = target: MRCKa/CDC42BPA (Homo sapiens, UniProt Q5VT25); assay: biochemical; settings: read-out: % enzyme activity, 1 μM; Run 1, Run 2
[36] = target: PAK2 (Homo sapiens, UniProt Q13177); assay: biochemical; settings: read-out: % enzyme activity, 1 μM; Run 1, Run 2
[37] = target: PKCnu/PRKD3 (Homo sapiens, UniProt O94806); assay: biochemical; settings: read-out: % enzyme activity, 1 μM; Run 1, Run 2
[38] = target: PKN1/PRK1 (Homo sapiens, UniProt Q16512); assay: biochemical; settings: read-out: % enzyme activity, 1 μM; Run 1, Run 2
[39] = target: SGK1 (Homo sapiens, UniProt O00141); assay: biochemical; settings: read-out: % enzyme activity, 1 μM; Run 1, Run 2
[40] = target: STK25/YSK1 (Homo sapiens, UniProt O00506); assay: biochemical; settings: read-out: % enzyme activity, 1 μM; Run 1, Run 2
[41] = target: T1, TLK1; assay: biochemical; settings: read-out: % enzyme activity, 1 μM; Run 1, Run 2
[42] = target: VRK2 (Homo sapiens, UniProt Q86Y07); assay: biochemical; settings: read-out: % enzyme activity, 1 μM; Run 1, Run 2
[43] = target: WNK3 (Homo sapiens, UniProt Q9BYP7); assay: biochemical; settings: read-out: % enzyme activity, 1 μM; Run 1, Run 2

## COc1cc(-c2cncc(-c3ccc(N4CCN(C(C)C)CC4)cc3)c2C)cc(F)c1C(N)=O [Compound 26b, 2-Fluoro-4-(5-(4-(4-isopropylpiperazin-1-yl)phenyl)-4-methylpyridin-3-yl)-6-methoxybenzamide]
[1]
  % enzyme activity: 64.33%
[2]
  % enzyme activity: 85.35%
[3]
  % enzyme activity: 93.67%
[4]
  % enzyme activity: 95.41%
[5]
  % enzyme activity: 99.26%
[6]
  % enzyme activity: 91.70%
[7]
  % enzyme activity: 85.73%
[8]
  % enzyme activity: 93.34%
[9]
  % enzyme activity: 94.38%
[10]
  % enzyme activity: 97.43%
[11]
  % enzyme activity: 100.06%
[12]
  % enzyme activity: 55.64%
[13]
  % enzyme activity: 95.45%
[14]
  % enzyme activity: 93.52%
[15]
  % enzyme activity: 101.18%
[16]
  % enzyme activity: 110.20%
[17]
  % enzyme activity: 103.63%
[18]
  % enzyme activity: 97.30%
[19]
  % enzyme activity: 92.87%
[20]
  % enzyme activity: 93.88%
[21]
  % enzyme activity: 109.03%
[22]
  % enzyme activity: 100.24%
[23]
  remaining activity at 1 µM: 94%
[24]
  remaining activity at 1 µM: 89%
[25]
  remaining activity at 1 µM: 103%
[26]
  remaining activity at 1 µM: 90.1%
[27]
  remaining activity at 1 µM: 103%
[28]
  remaining activity at 1 µM: 96.2%
[29]
  remaining activity at 1 µM: 87.2%
[30]
  remaining activity at 1 µM: 102%
[31]
  remaining activity at 1 µM: 87.9%
[32]
  remaining activity at 1 µM: 92.5%
[33]
  remaining activity at 1 µM: 95.2%
[34]
  remaining activity at 1 µM: 106%
[35]
  remaining activity at 1 µM: 104%
[36]
  remaining activity at 1 µM: 107%
[37]
  remaining activity at 1 µM: 142%
[38]
  remaining activity at 1 µM: 94.6%
[39]
  remaining activity at 1 µM: 91.1%
[40]
  remaining activity at 1 µM: 92.8%
[41]
  remaining activity at 1 µM: 111%
[42]
  remaining activity at 1 µM: 88%
[43]
  remaining activity at 1 µM: 92.1%
